According to US8680137B2, “Agents and methods for treating ischemic and other diseases” (Nono Inc., priority 2009, dated 2014):
Where a name gives a salt, the structure may show the parent alone. For at least one compound, name, drawing or mass did not settle the structure.

Amino acid sequences for entries named in this document (tags omitted). A change or cut given only in a name is not applied to a line headed by its entry.
UniProt Q923J1: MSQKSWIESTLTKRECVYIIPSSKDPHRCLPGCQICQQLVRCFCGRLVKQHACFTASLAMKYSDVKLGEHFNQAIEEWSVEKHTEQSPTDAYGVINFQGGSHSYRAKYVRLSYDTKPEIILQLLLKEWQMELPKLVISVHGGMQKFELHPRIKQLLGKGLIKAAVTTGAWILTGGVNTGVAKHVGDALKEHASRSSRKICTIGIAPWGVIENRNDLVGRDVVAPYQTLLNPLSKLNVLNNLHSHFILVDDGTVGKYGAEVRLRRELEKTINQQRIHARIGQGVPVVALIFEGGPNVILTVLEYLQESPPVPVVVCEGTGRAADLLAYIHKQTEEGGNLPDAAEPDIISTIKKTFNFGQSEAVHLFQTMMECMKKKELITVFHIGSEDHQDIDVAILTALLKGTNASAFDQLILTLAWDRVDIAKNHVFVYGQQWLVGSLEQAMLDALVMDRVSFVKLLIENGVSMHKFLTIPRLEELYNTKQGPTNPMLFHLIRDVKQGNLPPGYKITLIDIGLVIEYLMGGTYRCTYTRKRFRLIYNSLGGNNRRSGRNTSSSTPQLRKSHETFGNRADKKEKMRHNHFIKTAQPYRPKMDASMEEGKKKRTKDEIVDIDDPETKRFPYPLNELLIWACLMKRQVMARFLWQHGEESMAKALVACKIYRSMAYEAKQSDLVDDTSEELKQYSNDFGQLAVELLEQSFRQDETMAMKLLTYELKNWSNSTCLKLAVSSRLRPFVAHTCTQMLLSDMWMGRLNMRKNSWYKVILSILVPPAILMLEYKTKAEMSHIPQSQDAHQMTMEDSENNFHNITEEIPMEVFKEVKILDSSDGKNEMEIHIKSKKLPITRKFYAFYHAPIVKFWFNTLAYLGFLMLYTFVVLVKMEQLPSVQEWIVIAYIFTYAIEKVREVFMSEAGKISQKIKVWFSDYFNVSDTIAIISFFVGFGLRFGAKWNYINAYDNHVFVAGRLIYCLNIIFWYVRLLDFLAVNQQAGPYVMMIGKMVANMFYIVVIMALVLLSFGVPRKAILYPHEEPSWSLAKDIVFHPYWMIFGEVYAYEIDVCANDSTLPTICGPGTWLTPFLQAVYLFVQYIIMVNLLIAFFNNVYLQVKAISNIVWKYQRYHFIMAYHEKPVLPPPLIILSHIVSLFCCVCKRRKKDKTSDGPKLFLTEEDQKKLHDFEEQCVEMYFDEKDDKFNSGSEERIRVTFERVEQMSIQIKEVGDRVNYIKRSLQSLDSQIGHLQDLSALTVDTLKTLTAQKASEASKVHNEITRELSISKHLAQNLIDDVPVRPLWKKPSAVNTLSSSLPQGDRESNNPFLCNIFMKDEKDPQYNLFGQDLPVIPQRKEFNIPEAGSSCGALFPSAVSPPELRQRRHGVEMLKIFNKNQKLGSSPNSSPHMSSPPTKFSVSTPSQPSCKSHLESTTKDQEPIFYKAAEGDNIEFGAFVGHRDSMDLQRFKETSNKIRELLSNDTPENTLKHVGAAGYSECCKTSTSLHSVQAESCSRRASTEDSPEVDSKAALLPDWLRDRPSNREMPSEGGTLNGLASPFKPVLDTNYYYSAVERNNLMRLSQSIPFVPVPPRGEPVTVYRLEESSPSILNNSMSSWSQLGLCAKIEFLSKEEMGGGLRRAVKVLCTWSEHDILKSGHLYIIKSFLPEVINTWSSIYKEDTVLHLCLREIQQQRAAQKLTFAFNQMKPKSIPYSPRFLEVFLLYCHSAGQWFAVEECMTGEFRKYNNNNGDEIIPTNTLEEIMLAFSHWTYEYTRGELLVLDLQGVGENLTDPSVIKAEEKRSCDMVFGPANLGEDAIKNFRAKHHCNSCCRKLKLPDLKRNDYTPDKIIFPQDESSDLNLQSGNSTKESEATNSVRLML

Key:
murine TRPM7 = murine TRPM7 (Mus musculus, UniProt Q923J1); assay: TRPM7-mediated cell death screen, Tet-induced Flag-murine TRPM7 HEK293 Trex cells in Mg2+-deficient HBSS, PI fluorescence; conditions: for B Score: initial concentration 5 μM, HTS PI fluorescence; for Verification Ratio: manual replication
H9c2 cells = assay: OGD-induced cell death in H9c2 cardiomyocytes, PI uptake; format: cell-based, rat; conditions: 1 μM
Method: The rat cardiomyoblast cell line H9c2 was obtained from the American Type Culture Collection (CRL-1446) and cultured in Dulbecco's Modified Eagle Medium supplemented with 10% (v/v) heat-inactivated fetal bovine serum and 1% antibiotic-antimycotic. Cells were grown in an atmosphere of […]/5% CO2 in a humidified incubator.
H9c2 cells were made anoxic by replacing the medium with de-oxygenated Ischemic buffer (in mM: 1.13 CaCl2, 5 KCl, 0.3 KH2PO4, 0.5 MgCl2, 0.4 MgSO4, 128 NaCl, 10 HEPES) and by transferring them to an anaerobic chamber (5% CO2, 10% H2, 85% N2) for 6 hrs or 16 hrs at 37° C. OGD was terminated by washing the cells with oxygenated glucose-containing Control buffer (in mM: 1.13 CaCl2, 5 KCl, 0.3 KH2PO4, 0.5 MgCl2, 0.4 MgSO4, 128 NaCl, 10 HEPES 10 Glucose). Cultures were maintained for another 2 hrs at 37° C. in a humidified 5% CO2 atmosphere. Normoxic cells were maintained in Control buffer for the duration of the experiment.
Cell death was determined by fluorescence measurements of PI (5 μg/ml) using a multiwell plate fluorescence scanner. The fraction of dead cells in each culture was calculated as: fraction dead=(Ft−F0)/Fmax where Ft=PI fluorescence at 2 hrs post-OGD, F0=initial PI fluorescence immediately after the OGD treatment, and Fmax=PI fluorescence of the same cultures following 20 mins incubation in 1% TritonX-100. […]

Row | Structure (SMILES) | found to inhibit TRPM7-mediated cell injury (murine TRPM7; LOPAC (4 μM) and Prestwick (5 μM) hits) | Dose-Response (murine TRPM7; Prestwick library, 39 nM to 20 μM) | B Score (murine TRPM7; Prestwick library) | Verification Ratio (murine TRPM7; Prestwick library) | additional protection over TRPM7 inhibitors after anoxia (H9c2 cells)
1 | C=C(C)[C@@H]1CC[C@]2(C(=O)O)CC[C@]3(C)[C@H](CC[C@@H]4[C@@]5(C)CC[C@H](O)C(C)(C)[C@@H]5CC[C@]43C)[C@@H]12 [Betulinic acid] | inhibit TRPM7-mediated cell injury | Yes | −6.069 | 0.8831 | –
2 | O=C1c2c(O)ccc(O)c2C(=O)c2c(NCCNCCO)ccc(NCCNCCO)c21 [Mitoxantrone dihydrochloride] | – | – | −10.068 | 0.1381 | –
3 | COC(=O)C1=C(C)NC(C)=C(C(=O)OC)C1c1ccccc1[N+](=O)[O-] [Nifedipine, reference compound] | – | – | – | – | does not provide additional protection
